The results in this text go back to article PMC7235043.

Sequences of proteins named here, by UniProt entry; tags and fusion partners are left off.
UniProt O09106: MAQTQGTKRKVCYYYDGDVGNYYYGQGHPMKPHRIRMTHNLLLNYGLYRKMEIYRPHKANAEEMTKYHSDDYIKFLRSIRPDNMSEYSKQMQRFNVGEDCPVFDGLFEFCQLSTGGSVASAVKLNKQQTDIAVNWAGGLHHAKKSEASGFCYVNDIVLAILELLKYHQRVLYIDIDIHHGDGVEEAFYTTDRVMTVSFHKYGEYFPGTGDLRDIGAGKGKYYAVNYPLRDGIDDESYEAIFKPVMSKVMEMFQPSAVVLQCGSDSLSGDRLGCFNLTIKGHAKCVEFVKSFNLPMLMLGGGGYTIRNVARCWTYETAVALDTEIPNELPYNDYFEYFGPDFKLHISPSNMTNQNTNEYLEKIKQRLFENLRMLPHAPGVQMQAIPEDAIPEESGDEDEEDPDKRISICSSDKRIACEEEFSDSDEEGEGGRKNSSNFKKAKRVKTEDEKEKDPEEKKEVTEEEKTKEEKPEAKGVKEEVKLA
UniProt O08760: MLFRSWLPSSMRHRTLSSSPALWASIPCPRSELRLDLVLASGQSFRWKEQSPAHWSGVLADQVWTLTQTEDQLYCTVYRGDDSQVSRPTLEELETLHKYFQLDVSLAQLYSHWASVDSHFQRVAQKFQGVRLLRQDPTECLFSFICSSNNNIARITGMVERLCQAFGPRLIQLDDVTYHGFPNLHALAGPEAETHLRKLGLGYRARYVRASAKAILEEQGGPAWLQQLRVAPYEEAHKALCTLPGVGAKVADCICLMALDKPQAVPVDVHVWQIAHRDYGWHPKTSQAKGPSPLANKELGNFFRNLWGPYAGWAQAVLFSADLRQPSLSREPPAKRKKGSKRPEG

This experiment concerns the target Histone deacetylase 1 (HDAC1) (mouse (endogenous in cortex and hippocampus)) (UniProt O09106). Kind of experiment: co-IP; HDAC1 immunoprecipitated from cortical and hippocampal nuclear extracts of wild-type mice (cortex: 2-month-old, n = 2); IP buffer 50 mM Tris-HCl pH 8.0, 150 mM NaCl, 0.5% Triton X-100, 0.1% NP-40; 5 ug antibody overnight at 4 C, Protein A Sepharose; OGG1 detected by western blot.

These are yes or no findings as the source states them, for the method shown. Binding seen in cells or lysates may run through a third protein. Some entries that bind do so weakly or less than the wild type.

Consider “8-oxoguanine DNA glycosylase 1 (OGG1) (from UniProt O08760 1-345) (enzyme)”, for which the binding entry was “binds”.
